PubChem BioAssay AID504784 – Drosophila RNAi Screening Center, 2011
Aim: 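Genome-wide knock-down for genes giving too much or too little stored lipid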 (primary screen). Cell system: Drosophila Kc167 embryonic cells. Reagents: long dsRNA against Drosophila genes, about 250 ng dsRNA per well. Time to read-out: 4 days. Challenge: cells fed 400 µM oleic acid bound to BSA. Measured: 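Cells imaged and segmented; ratio of lipid droplet area to nuclear area, log-transformed, then normalised as a B-score over the screen; higher means more stored lipid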. Direction: droplet/nuclear area B-score: higher = more stored lipid (overstorage).
In all, the deposit lists about 17,000 reagents; below is an unselected part of those with a known target gene and a result. 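Each column is one replicate's B-score; the combined score over replicates was not deposited, so single values may mislead.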 The numbers tell different reagents against one gene apart. Names joined by + are all predicted targets of the reagent.

gene,reagent no.,"droplet/nuclear area B-score, replicate 1","droplet/nuclear area B-score, replicate 2","droplet/nuclear area B-score, replicate 3"
qm,1,-0.00552,3.18,
ida,1,0.0349,0.477,
Alp7,1,-0.68,-0.541,
Cyp9f2,1,-0.153,,
CG3793,1,0.227,-0.304,
Mrp5,1,-0.717,-0.291,
Mrp5,2,1.2,-0.59,
att-ORFB + DPCoAC,1,0.673,1.73,
CG34342,1,-0.725,0.287,
CG34342,2,-1.12,-0.427,
Snoo,1,-0.922,0.69,
Snoo,2,-0.498,0.295,
Fum3,1,-0.138,-0.917,
trh,1,0.352,-1.57,
trh,2,-0.0504,0.234,
klu,1,-1.08,-0.647,
CG42269,1,-0.121,0.354,
CG42269,2,-0.206,-0.597,
Taf2,1,0.301,,

Copied from the entries so far, 3 entries:
gene,reagent no.,"droplet/nuclear area B-score, replicate 1","droplet/nuclear area B-score, replicate 2","droplet/nuclear area B-score, replicate 3"
CG3793,1,0.227,-0.304,
Mrp5,1,-0.717,-0.291,
Mrp5,2,1.2,-0.59,

Further reagents follow.
gene,reagent no.,"droplet/nuclear area B-score, replicate 1","droplet/nuclear area B-score, replicate 2","droplet/nuclear area B-score, replicate 3"
CG6094,1,2.48,3.29,-0.62
CG6094,2,1.54,0.275,
CG11807,1,2.79,0.315,
Cnx14D,1,0.019,-0.0639,
CG3014,1,0.388,-0.768,
MFS10,1,0.107,0.149,0.124
beat-Ic,1,-0.125,0.194,
beat-Ic,2,2.14,-0.0171,
CG1737,1,-0.569,1.11,
Cyp316a1,1,0.363,-0.346,
timeout,1,0.411,0.0553,
timeout,2,0.489,-1.04,
timeout,3,-1.56,-2.63,
timeout,4,-1.4,-0.0623,
timeout,5,-2.1,3.89,
timeout,6,0.154,0.435,
Idgf5,1,1.2,0.552,
Dhc16F,1,-0.828,-0.00109,
Polr3E,1,0.144,2.99,
l(3)72Dp,1,0.365,-0.413,
CG11666,1,0.0607,-0.313,
CG15594,1,1.36,1.68,
Vps60,1,0.849,-0.626,
sals,1,-2.44,-6.44,
sals,2,-0.38,0.377,
Mp20,1,0.837,1.64,
CG4617,1,1.12,-0.904,0.0562
CG9570,1,-0.0293,0.835,
AstCC,1,0.696,0.992,
CG31827 + CG18478,1,-0.593,-1.66,
Mtk,1,1.82,-1.71,
CG14618,1,-0.533,-1.38,
CG14420,1,-1.73,0.252,
CG11294,1,-2.89,-0.32,
mRpL54,1,4.1,3.27,
CG13771,1,0.0842,-1.2,
Fbxl4,1,0.229,-1.6,-0.034
